From paper PMC5959946 come the findings set out here.

The chains behind the UniProt entries cited, without tags or fusion partners.
UniProt P60484: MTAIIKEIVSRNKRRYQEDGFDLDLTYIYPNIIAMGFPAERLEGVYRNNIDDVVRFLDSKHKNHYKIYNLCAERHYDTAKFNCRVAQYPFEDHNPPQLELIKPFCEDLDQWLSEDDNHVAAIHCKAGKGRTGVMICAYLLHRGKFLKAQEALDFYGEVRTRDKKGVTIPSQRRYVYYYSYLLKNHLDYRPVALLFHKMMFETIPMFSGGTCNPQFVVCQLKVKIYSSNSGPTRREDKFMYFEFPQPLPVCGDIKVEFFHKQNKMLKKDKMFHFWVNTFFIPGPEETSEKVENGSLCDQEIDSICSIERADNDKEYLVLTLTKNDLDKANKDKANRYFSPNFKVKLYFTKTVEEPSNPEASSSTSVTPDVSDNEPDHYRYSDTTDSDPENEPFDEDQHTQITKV

The target of the experiment is PTEN (human (endogenous in 7404 HCC cells)) (UniProt P60484). Kind of experiment: co-IP; endogenous proteins from HCC cell lysates; immunoprecipitation (control IgG or anti-PTEN antibody) and western blot; control, chemerin-overexpressing, chemerin knockdown and chemerin-treated (1 nM) cells. A general note: A western blot detects proteins with antibodies after separation by electrophoresis.

No constants are given. Whether binding was seen depends on the method and setting. In cells and extracts the contact can be indirect. Some results given as binding are weak or reduced against the parent protein; the word gives no strength.

B1: chemokine-like receptor 1 (CMKLR1) (receptor, UniProt Q99788 1-373)
chain: MRMEDEDYNTSISYGDEYPDYLDSIVVLEDLSPLEARVTRIFLVVVYSIVCFLGILGNGLVIIIATFKMKKTVNMVWFLNLAVADFLFNVFLPIHITYAAMDYHWVFGTAMCKISNFLLIHNMFTSVFLLTIISSDRCISVLLPVWSQNHRSVRLAYMACMVIWVLAFFLSSPSLVFRDTANLHGKISCFNNFSLSTPGSSSWPTHSQMDPVGYSRHMVVTVTRFLCGFLVPVLIITACYLTIVCKLQRNRLAKTKKPFKIIVTIIITFFLCWCPYHTLNLLELHHTAMPGSVFSLGLPLATALAIANSCMNPILYVFMGQDFKKFKVALFSRLVNALSEDTGHSSYPSHRSFTKMSSMNERTSMNERETGML
On to B1, for which the binding entry is reported as “binds”.
